Residue numbers refer to the chain shown, from its start. These are yes or no findings as the source states them, for the method shown. Sequences can lack the tags named with a protein. One block for each binder: values may come before it.
Key:
[1] = biological target: T1, BD-RBR (RETINOBLASTOMA-RELATED1 protein fused to the GAL4 DNA binding domain) (Arabidopsis thaliana) (UniProt Q9LKZ3); experiment: two-hybrid
T1 sequence: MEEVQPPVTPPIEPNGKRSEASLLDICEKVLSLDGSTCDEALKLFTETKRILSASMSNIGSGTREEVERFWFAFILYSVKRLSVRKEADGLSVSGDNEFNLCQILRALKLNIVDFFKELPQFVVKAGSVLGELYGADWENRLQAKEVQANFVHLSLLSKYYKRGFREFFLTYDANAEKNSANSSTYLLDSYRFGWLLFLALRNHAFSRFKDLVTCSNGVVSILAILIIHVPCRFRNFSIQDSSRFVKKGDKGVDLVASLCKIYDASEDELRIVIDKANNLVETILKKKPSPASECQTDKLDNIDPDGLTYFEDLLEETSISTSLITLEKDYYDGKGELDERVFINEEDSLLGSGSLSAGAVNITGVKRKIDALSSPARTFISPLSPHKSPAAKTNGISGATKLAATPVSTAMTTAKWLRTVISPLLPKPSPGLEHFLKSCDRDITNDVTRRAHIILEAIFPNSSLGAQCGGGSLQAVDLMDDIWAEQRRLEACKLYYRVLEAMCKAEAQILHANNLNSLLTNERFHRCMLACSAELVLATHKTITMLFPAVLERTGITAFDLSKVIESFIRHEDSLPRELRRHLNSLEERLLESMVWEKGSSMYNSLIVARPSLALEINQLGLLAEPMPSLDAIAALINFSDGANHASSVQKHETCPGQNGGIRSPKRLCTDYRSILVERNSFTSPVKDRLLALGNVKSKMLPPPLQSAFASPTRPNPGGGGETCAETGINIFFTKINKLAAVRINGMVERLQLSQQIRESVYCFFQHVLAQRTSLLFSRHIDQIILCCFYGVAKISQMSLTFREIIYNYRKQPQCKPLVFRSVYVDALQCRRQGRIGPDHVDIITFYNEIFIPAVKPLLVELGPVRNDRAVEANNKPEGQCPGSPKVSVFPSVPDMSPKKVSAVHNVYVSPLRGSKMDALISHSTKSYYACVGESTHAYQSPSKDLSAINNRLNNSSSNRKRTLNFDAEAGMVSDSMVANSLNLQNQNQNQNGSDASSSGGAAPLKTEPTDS

[2] = biological target: T2, BD-RBR^NF (RBR with N849F fused to the GAL4 DNA binding domain) (Arabidopsis thaliana) (UniProt Q9LKZ3); experiment: two-hybrid
T2 sequence: T1 sequence with N849F

binding [1]: no binding
B1: RAD54, yeast two-hybrid fusion (protein, UniProt Q0PCS3 1-910)
chain: MEEEDEEILSSSDCDDSSDSYKDDSQDSEGENDNPECEDLAVVSLSSDADRKSKNVKDLLRGNLVVQRQPLLPRVLSVSDGAAVCRKPFKPPCSHGYDSTGQLSRRLSARKRFVPWGSSTPVVVALPTKLEASTNIERDEEEEVVCLPPDIEPLVLWQSEEDGMSNVTTIMVHSVLVKFLRPHQREGVQFMFDCVSGLHGSANINGCILADDMGLGKTLQSITLLYTLLCQGFDGTPMVKKAIIVTPTSLVSNWEAEIKKWVGDRIQLIALCESTRDDVLSGIDSFTRPRSALQVLIISYETFRMHSSKFCQSESCDLLICDEAHRLKNDQTLTNRALASLTCKRRVLLSGTPMQNDLEEFFAMVNFTNPGSLGDAAHFRHYYEAPIICGREPTATEEEKNLAADRSAELSSKVNQFILRRTNALLSNHLPPKIIEVVCCKMTTLQSTLYNHFISSKNLKRALADNAKQTKVLAYITALKKLCNHPKLIYDTIKSGNPGTVGFENCLEFFPAEMFSGRSGAWTGGDGAWVELSGKMHVLSRLLANLRRKTDDRIVLVSNYTQTLDLFAQLCRERRYPFLRLDGSTTISKRQKLVNRLNDPTKDEFAFLLSSKAGGCGLNLIGANRLVLFDPDWNPANDKQAAARVWRDGQKKRVYVYRFLSTGTIEEKVYQRQMSKEGLQKVIQHEQTDNSTRQGNLLSTEDLRDLFSFHGDVRSEIHEKMSCSRCQNDASGTENIEEGNENNVDDNACQIDQEDIGGFAKDAGCFNLLKNSERQVGTPLEEDLGSWGHHFTSKSVPDAILQASAGDEVTFVFTNQVDGKLVPIESNVSPKTVESEEHNRNQPVNKRAFNKPQQRPREPLQPLSLNETTKRVKLSTYKRLHGNSNIDDAQIKMSLQRPNLVSVNHDDDFV

binding [2]: no binding
binding [1]: no binding
B2: AD-SOG1 (SUPPRESSOR OF GAMMA RESPONSE1 fused to the GAL4 activation domain) (protein, UniProt Q6NQK2 1-449)
chain: MAGRSWLIDSNRIATKIMSASASSDPRQVVWKSNPSRHCPKCQHVIDNSDVVDDWPGLPRGVKFDPSDPEIIWHLLAKSGLSGLSSHPFIDEFIPTVNQDDGICYTHPKNLPGVKSDGTVSHFFHKAIKAYSTGTRKRRKIHDDDFGDVRWHKTGRTKPVVLDGVQRGCKKIMVLYGGKAVKTNWVMHQYHLGIEEDEKEGDYVVSKIFYQQPQQLVVKRGDKAEQEVSEDIFAAVTPTADPVTPKLATPEPRNAVRICSDSHIASDYVTPSDYVSAHEVSLAETSEVMCMEDEVQSIQPNHERPSSGPELEHGLENGAKEMLDDKEEQEKDRDNENQGEEDPTWFDSGSQFILNSQQLVEALSLCDDLLGSQDREENTNSGSLKDKQPCIADYAHLGPEDFKRDLEECQKIVLDPSNIELDTPPEFRLSQLEFGSQDSFLAWGTGKTD

— article doi:10.1101/2021.12.22.473497
